These results are taken from article PMC2993708.

The exact form of at least one protein or probe is not confirmed. For some of these results: Where cells or extracts were used, other partners may take part. For some of these results: Weaker means in comparison with the reference protein, sequence or condition of that experiment. For some of these results: Where a protein sequence is shown, tags need not be part of it.

In series [1] the target is T1, CTCF (transfected, HEK293T extract) (UniProt Q61164).
T1 sequence (looked up, limits assumed): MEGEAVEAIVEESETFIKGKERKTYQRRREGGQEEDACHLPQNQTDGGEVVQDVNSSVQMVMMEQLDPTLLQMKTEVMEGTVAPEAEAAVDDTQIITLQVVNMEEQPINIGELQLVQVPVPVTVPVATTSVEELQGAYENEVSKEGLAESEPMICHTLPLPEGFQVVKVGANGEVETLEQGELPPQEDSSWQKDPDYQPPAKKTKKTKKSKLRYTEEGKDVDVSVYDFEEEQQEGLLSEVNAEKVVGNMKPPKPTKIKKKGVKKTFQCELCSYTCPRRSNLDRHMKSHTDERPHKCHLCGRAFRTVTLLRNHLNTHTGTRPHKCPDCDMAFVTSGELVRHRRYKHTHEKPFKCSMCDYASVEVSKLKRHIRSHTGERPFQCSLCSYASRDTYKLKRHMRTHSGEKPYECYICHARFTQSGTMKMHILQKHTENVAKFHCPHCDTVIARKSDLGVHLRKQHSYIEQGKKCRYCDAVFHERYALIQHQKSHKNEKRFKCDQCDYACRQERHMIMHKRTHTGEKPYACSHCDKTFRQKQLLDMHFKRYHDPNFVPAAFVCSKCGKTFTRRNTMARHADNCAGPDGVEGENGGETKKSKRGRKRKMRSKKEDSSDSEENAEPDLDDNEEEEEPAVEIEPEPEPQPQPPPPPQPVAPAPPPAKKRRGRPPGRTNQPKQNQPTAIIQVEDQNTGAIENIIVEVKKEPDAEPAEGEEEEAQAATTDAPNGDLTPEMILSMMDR
Description: competition with a labelled probe. The conditions noted are these: EMSA: 20 mM Hepes pH 7.4, 20 mM KCl, 1 mM MgCl2, 5 mM DTT, 10 uM ZnCl2, 10% glycerol, 100 ug/ml BSA, 0.02% NP40, 2-4 ug salmon sperm DNA, room temperature 20 min, 5% gel, protein in a lysate after overexpression, label: 32P end label. Background: In EMSA bound probe runs differently from free probe, usually more slowly.

Series [2] addresses T1, CTCF (transfected, HEK293T extract). Description: EMSA. The following applies: EMSA: 20 mM Hepes pH 7.4, 20 mM KCl, 1 mM MgCl2, 5 mM DTT, 10 uM ZnCl2, 10% glycerol, 100 ug/ml BSA, 0.02% NP40, 2-4 ug salmon sperm DNA, room temperature 20 min, 5% gel, protein in a lysate after overexpression, label: 32P end label.
Series [3] concerns the target GST-CTCF-ZF (UniProt Q61164). Description: EMSA. The following applies: EMSA: 20 mM Hepes pH 7.4, 20 mM KCl, 1 mM MgCl2, 5 mM DTT, 10 uM ZnCl2, 10% glycerol, 100 ug/ml BSA, 0.02% NP40, 2-4 ug salmon sperm DNA; room temperature 20 min; 5% gel; recombinant protein; protein details: GST (N-terminal); label: 32P end label.
Series [4] has as its target T2, CTCF (endogenous, HEK293T nuclear extract) (UniProt P49711).
T2 sequence (looked up, limits assumed): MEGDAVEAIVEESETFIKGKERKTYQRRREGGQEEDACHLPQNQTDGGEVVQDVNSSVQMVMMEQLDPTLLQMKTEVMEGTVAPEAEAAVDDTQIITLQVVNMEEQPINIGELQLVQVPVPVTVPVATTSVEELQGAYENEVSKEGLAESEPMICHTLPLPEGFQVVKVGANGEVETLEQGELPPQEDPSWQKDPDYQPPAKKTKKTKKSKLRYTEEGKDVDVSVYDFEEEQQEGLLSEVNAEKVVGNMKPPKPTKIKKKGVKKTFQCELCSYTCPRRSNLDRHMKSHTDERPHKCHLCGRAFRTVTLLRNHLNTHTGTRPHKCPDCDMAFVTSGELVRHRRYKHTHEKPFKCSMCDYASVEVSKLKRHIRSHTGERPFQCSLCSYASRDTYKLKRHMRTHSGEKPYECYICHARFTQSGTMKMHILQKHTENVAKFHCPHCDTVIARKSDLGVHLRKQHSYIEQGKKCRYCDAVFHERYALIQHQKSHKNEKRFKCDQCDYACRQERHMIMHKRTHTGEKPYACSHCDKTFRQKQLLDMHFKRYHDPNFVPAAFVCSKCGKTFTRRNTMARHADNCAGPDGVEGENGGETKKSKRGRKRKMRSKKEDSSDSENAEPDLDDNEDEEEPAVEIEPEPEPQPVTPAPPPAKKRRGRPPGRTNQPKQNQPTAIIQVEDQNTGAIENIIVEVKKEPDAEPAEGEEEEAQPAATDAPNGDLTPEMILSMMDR
Description: EMSA. The conditions noted are these: EMSA: 20 mM Hepes pH 7.4, 20 mM KCl, 1 mM MgCl2, 5 mM DTT, 10 uM ZnCl2, 10% glycerol, 100 ug/ml BSA, 0.02% NP40, 2-4 ug salmon sperm DNA; room temperature 20 min; 5% gel; protein in an extract; label: 32P end label.

Turning to “CTAGATGAAGAAATTGAGACCTCTACTGGATAGCTATGGTATTTACGTGTCTA / AGCTTAGACACGTAAATACCATAGCTATCCAGTAGAGGTCTCAATTTCTTCAT [F1 (chicken lysozyme)]”, the binding result in series [1] (relative to R30, 300-fold excess competitor) is “binds more weakly”.

Turning to “TGTATGGTTGATCGAGACCATTGTCGGGCAATACCTAGTAGTGACAAGTTTCGGGAACGCTCCAGGCCTCT (double strand) [R30mut]”, the binding result in series [2] (relative to R30) is reported as “binds more weakly”.

Take “TGTATGGTTGATCGAGACCATTGTCGGGCGACACCTAGTGGTGACAAGTTTCGGGAACGCTCCAGGCCTCT (double strand) [R30]”: the binding result in series [2], in series [3] and in series [4] was “binds” in each case. For the sequence “TGTATGGTTGATCGAGACCATTGTCGGGCGACACCTAGTGGTGACAAGTTTCGGGAACGCTCCAGGCCTCT (double strand) [R30-CmE (R30met)]”, the binding result is “binds more weakly” in series [1] (poorer competitor than unmethylated R30, 5-methyl-dC at strand 1 positions 25 and 29, strand 2 positions 42 and 46); “binds more weakly” in series [2] (slightly less than unmethylated R30, 5-methyl-dC at strand 1 positions 25 and 29, strand 2 positions 42 and 46).
